Reference: publication PMC7193404
Results are given in words; binding and its absence hold for the method and conditions named. Some results given as binding are weak or reduced against the parent protein; the word gives no strength.

Amino acid sequences for entries named in this document (tags omitted). Residues count along the entry.
UniProt P11362, residues 22-376: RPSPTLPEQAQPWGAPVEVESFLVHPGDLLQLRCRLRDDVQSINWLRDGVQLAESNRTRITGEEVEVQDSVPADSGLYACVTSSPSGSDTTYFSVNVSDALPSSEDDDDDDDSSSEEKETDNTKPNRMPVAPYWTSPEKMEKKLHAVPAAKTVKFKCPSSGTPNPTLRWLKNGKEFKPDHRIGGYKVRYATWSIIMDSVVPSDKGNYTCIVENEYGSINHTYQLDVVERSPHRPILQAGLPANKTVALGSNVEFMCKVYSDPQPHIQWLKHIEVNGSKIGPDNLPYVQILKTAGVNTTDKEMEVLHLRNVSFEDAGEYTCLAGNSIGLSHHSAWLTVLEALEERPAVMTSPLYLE
UniProt P21802, residues 22-377: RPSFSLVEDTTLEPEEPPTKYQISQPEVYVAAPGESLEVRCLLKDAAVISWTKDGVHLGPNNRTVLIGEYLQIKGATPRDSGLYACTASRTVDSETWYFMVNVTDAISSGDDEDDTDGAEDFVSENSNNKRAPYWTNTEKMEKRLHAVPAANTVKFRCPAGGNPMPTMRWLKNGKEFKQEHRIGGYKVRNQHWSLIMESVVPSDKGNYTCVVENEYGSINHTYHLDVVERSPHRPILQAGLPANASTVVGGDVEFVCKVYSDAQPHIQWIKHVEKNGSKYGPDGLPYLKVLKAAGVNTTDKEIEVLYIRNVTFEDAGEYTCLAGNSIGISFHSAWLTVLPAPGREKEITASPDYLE
UniProt P22607, residues 23-375: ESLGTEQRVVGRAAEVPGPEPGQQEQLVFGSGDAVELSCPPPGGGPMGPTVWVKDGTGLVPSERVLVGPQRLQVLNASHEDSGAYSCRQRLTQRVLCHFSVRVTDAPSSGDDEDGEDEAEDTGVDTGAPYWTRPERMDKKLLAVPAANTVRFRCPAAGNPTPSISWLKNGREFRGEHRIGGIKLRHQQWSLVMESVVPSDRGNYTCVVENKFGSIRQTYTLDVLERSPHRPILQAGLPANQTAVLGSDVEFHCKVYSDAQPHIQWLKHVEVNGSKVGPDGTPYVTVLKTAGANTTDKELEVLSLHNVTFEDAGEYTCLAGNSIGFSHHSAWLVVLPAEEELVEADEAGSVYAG
UniProt P22455, residues 22-369: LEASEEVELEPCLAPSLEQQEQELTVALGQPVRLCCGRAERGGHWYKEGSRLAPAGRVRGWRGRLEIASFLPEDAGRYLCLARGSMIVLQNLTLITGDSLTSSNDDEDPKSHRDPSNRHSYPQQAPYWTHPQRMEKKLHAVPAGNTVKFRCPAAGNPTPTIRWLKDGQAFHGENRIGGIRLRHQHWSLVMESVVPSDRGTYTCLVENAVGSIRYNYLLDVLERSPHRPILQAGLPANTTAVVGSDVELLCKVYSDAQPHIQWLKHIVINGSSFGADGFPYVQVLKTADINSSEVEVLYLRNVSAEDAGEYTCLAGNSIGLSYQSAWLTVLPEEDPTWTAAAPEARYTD

target: T1, fibroblast growth factor homologous factor 1, short isoform (FHF1b) (human) (UniProt P61328); experiment: ELISA; FGF1 or FHF1 (0.05 uM) coated on Maxisorp plate, blocked with 3% BSA; FGFR-Fc in solution; washes in TBST pH 7.5; detected with anti-human IgG (Fc)-HRP, TMB, absorbance at 450 nm; both purified
T1 sequence: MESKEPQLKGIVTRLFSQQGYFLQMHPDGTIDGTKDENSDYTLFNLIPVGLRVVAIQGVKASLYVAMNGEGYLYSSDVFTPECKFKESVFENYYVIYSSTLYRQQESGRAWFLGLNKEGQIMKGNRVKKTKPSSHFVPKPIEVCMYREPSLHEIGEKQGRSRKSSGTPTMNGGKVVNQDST

| binding | Substance |
| --- | --- |
| binds | extracellular region of FGFR1 fused to the Fc fragment (from UniProt P11362 22-376) (Fc fusion) |
| binds | extracellular region of FGFR2 fused to the Fc fragment (from UniProt P21802 22-377) (Fc fusion) |
| binds | extracellular region of FGFR3 fused to the Fc fragment (from UniProt P22607 23-375) (Fc fusion) |
| binds | extracellular region of FGFR4 fused to the Fc fragment (from UniProt P22455 22-369) (Fc fusion) |
